PubChem BioAssay AID1259308, NCATS – 2017
The whole screen tested about 59,000 reagents; this is an unselected part. About 1,510 of them (2.6%) were called active. 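Calls use total luciferase alone and ignore viability, so some active siRNAs may act by altering cell number.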 Unmarked entries are inactive. The numbers tell different reagents against one gene apart.

Aim: 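Knock-downs that increase output of a recombinant reporter protein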 (primary screen)
Cell system: human HEK293 embryonic kidney cells stably expressing firefly luciferase (HEK-CMV-Luc2-Hygro)
Reagents: single siRNA against human genes, 0.8 pmol siRNA per well
Time to read-out: 72 h
Measured: 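Reporter luminescence and viable-cell signal on separate replicate plates, given as percent of non-targeting control and median/MAD z-scores, plus per-cell luciferase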
Reading the numbers: total luciferase, z-score and total luciferase, % of control: higher = more reporter protein produced; luciferase per cell, z-score: higher = more reporter output per viable cell; viable cells, % of control: higher = more viable cells
Hit rule: 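An siRNA counts as active if its total luciferase robust z-score exceeds 3; genes with two or more such siRNAs out of three were retested with fresh siRNAs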
Meaning of the calls: active = raised luciferase; inactive = no rise

no.	Target gene	reagent	total luciferase, z-score	total luciferase, % of control	luciferase per cell, z-score	viable cells, % of control
1	GIPC3 (GIPC PDZ domain containing family member 3)	1	0.0605	83.1	-0.167	97
2	GIPC3 (GIPC PDZ domain containing family member 3)	2	-0.158	78.8	-0.156	91.7
3	GIPC3 (GIPC PDZ domain containing family member 3)	3	-0.63	69.4	-1.01	101
4	OTUD6A (OTU deubiquitinase 6A)	1	-0.897	64	-0.895	90.6
5	OTUD6A (OTU deubiquitinase 6A)	2	0.12	84.3	0.393	84.9
6	OTUD6A (OTU deubiquitinase 6A)	3	-0.0205	81.5	-0.506	104
7	SEMA6A (semaphorin 6A)	1	-1.6	50	-1.99	94.4
8	SEMA6A (semaphorin 6A)	2	0.536	92.5	1.36	72.3
9	SEMA6A (semaphorin 6A)	3	-1.42	53.7	-1.37	86.2
10	UGCG (UDP-glucose ceramide glucosyltransferase)	1	-0.869	64.6	-0.512	82.6
11	UGCG (UDP-glucose ceramide glucosyltransferase)	2	-0.222	77.5	0.217	81.8
12	UGCG (UDP-glucose ceramide glucosyltransferase)	3	-0.0685	80.5	-0.784	111
13	MAG (myelin associated glycoprotein)	1	0.182	85.5	0.529	83.1
14	MAG (myelin associated glycoprotein)	2	-1.74	47.3	-2.39	99.4
15	MAG (myelin associated glycoprotein)	3	-0.197	78	0.218	82.3
16	ZNF66 (zinc finger protein 66)	1	2.24	126	1.58	93.1
17	ZNF66 (zinc finger protein 66)	2	-0.808	65.8	0.502	64.4
18	ZNF66 (zinc finger protein 66)	3	0.0386	82.7	-0.772	113

Sorted by “luciferase per cell, z-score” (lowest first): some entries from above.
Target gene	reagent	total luciferase, z-score	total luciferase, % of control	luciferase per cell, z-score	viable cells, % of control
SEMA6A (semaphorin 6A)	3	-1.42	53.7	-1.37	86.2
UGCG (UDP-glucose ceramide glucosyltransferase)	3	-0.0685	80.5	-0.784	111
UGCG (UDP-glucose ceramide glucosyltransferase)	1	-0.869	64.6	-0.512	82.6
UGCG (UDP-glucose ceramide glucosyltransferase)	2	-0.222	77.5	0.217	81.8

Additional reagents follow:
no.	Target gene	reagent	total luciferase, z-score	total luciferase, % of control	luciferase per cell, z-score	viable cells, % of control
19	AFG2B (AAA ATPase AFG2B)	1	-0.136	79.2	-0.517	101
20	AFG2B (AAA ATPase AFG2B)	2	-1.75	47.1	-1.57	79.7
21	AFG2B (AAA ATPase AFG2B)	3	-1.04	61.3	-0.919	87.2
22	ZNF287 (zinc finger protein 287)	1	-0.864	64.7	-1.33	103
23	ZNF287 (zinc finger protein 287)	2	-0.604	69.9	-0.865	98
24	ZNF287 (zinc finger protein 287)	3	4.28 (active)	167	3.03	84
25	GPC5 (glypican 5)	1	0.125	84.4	-0.412	105
26	GPC5 (glypican 5)	2	1.3	108	0.95	93.7
27	GPC5 (glypican 5)	3	-0.835	65.3	-0.816	90.4
28	OAF (out at first homolog)	1	-0.142	79.1	0.235	83
29	OAF (out at first homolog)	2	-0.248	77	0.438	76.6
30	OAF (out at first homolog)	3	0.78	97.4	-0.101	112
31	PSME4 (proteasome activator subunit 4)	1	-1.09	60.1	-1.26	93.5
32	PSME4 (proteasome activator subunit 4)	2	1.52	112	1.27	89.7
33	PSME4 (proteasome activator subunit 4)	3	-0.838	65.2	-0.891	92.1
34	ARHGEF16 (Rho guanine nucleotide exchange factor 16)	1	0.267	87.2	1.04	74.1
35	ARHGEF16 (Rho guanine nucleotide exchange factor 16)	2	0.521	92.2	1.47	69.9
36	ARHGEF16 (Rho guanine nucleotide exchange factor 16)	3	-0.141	79.1	-0.597	103
37	DTX3 (deltex E3 ubiquitin ligase 3)	1	5.37 (active)	189	2.84	99.9
38	DTX3 (deltex E3 ubiquitin ligase 3)	2	0.226	86.4	-0.122	99.7
39	DTX3 (deltex E3 ubiquitin ligase 3)	3	-0.928	63.4	-1.41	103
